# Measured values: PubChem BioAssay AID1273 (Columbia University Molecular Screening Center, 2008)
# “And” between values parts separate entries of the source, which are not always exact repeats. Equal values may be shown once. In all, about 130,000 compounds went through this assay and about 1,200 (0.92%) were called active. The inconclusive results got no clear call from the source; some entries with a clear call stand among them for comparison.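 Rule for the calls: active = inhibition above the mean plus 3 SD, with well images judged a real hit on visual review (cut at about 60% in these data, passing the limit was not always enough); inconclusive = inhibition over the cutoff but images rejected on review; inactive = inhibition not above the cutoff.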
# Assay: inhibitors of insulin promoter-driven GFP, primary screen, imaging, TRM-6 cells (human fetal islet line), eGFP reporter, cell count (AID 1273)
# Conditions: at 2 µM, stronger effect = higher value, reporter expression induced with tamoxifen
row,SMILES,inhibition
1,CC(=O)NC(c1ccccc1)c1nc2ccccc2[nH]1 (configuration not stated),inconclusive: 77.8%
2,CCn1cc(C(=O)N2CCc3ccccc32)c(=O)c2cc(S(=O)(=O)N3CCCC3)ccc21,inconclusive: 61.1%
3,CCC/C(O)=C1\C(=O)CC(c2ccccc2)CC1=NCCc1c(C)[nH]c2ccc(C)cc12 (configuration not stated),inactive: -31.7%
4,Cc1ccccc1OCc1nc2ccccc2[nH]1,inconclusive: 70%
5,O=C(O)c1cccc(CN2C(=O)SC(Nc3cccc4ccccc34)C2=O)c1 (configuration not stated),inactive: 31.7%
6,COc1cc(S(=O)(=O)Nc2ccc(C)cc2)ccc1N=Cc1c(C)[nH]n(-c2ccccc2)c1=O,active: 72%
7,CCSc1nc2ccccc2[nH]1,active: 100% and inconclusive: 73.9%
8,COc1ccc(-c2[nH]ncc2CNCCc2ncccc2C)cc1F,inconclusive: 70.7%
9,O=C(CSc1n[nH]c(-c2ccc(S(=O)(=O)N3CCCCC3)cc2)n1)Nc1nccs1,inconclusive: 71.4%
10,COc1cc(-c2csc(N3CCOCC3)n2)cc(OC)c1OC,inactive: 9.68%
11,O=C(CCSc1nnc(-c2ccco2)o1)Nc1ccc(F)cc1,inconclusive: 72.7%
12,CCOc1c2c(nc3ccc(Cl)cc13)CCC2,inconclusive: 71.4%
13,COc1ccccc1/C=C1\CCCC2=C1Nc1nnnn1C2c1ccccc1OC (configuration not stated),inconclusive: 80%
14,COCC(C)NC(=O)Cc1ccc(F)cc1 (configuration not stated),inconclusive: 64.3%
15,Cc1ccc2[nH]c3c(=S)nc[nH]c3c2c1,active: 77.8%
16,CCCc1cc(C(N)=O)c(NC(=O)c2ccoc2C)s1,active: 76%
17,C=CCn1c(SCC(=O)Nc2nccs2)nnc1-c1cc2cccc(OC)c2o1,inconclusive: 81.8%
18,O=C(Nc1nnc(C2CC2)s1)c1cc([N+](=O)[O-])ccc1N1CCCCC1,inactive: 38.5%
19,CN=C1SC(CC(=O)NCCc2ccc(OC)c(OC)c2)C(=O)N1C (configuration not stated),inconclusive: 76.9%
20,O=C(c1ccco1)N1CCN(c2nc3ccsc3c(=O)s2)CC1,inconclusive: 85.7%
21,CCC(=O)c1ccc(OC(=O)c2cnccn2)cc1,inconclusive: 75%
22,Cc1cccc(-n2ncc(C#N)c2N)c1,inconclusive: 70.3%
23,CC1(C)CC(=O)C(CCC(=O)c2ccccc2)C(C)(C)N1 (configuration not stated),inactive: 34.6%

row,SMILES,inhibition
1,O=C(CNC(=S)NC(=O)c1ccc(Cl)cc1)c1ccccc1,inactive: 18.9%
2,Cc1ccc(CCNC(=O)NC(C)(C)C)cc1,inconclusive: 75%
3,COc1ccc(N2CCN(C(=O)c3ccc(NS(=O)(=O)c4cccc(F)c4)cc3)CC2)cc1,inactive: 35%
4,c1ccc(-c2csc3ncnc(NCC4COc5ccccc5O4)c23)cc1 (configuration not stated),inconclusive: 66.7%
5,Nc1ccc(-n2nnnc2CN2CCOCC2)cc1,inactive: 37.9%
6,Cc1cc(Cl)c(OCCOCCN2CCC(C)CC2)c(Br)c1,inactive: -34.6%
7,O=C(Cc1cc(=O)[nH][nH]1)N/N=C/c1c(Cl)cccc1Cl,inconclusive: 66.7%
8,COc1cc(CNCCSc2nnnn2C)cc(Br)c1OCc1ccc(F)cc1,inactive: 20.7%
9,CCOC(=O)c1sc(NC(=O)CSc2nc3ccccc3s2)c(C(=O)OCC)c1C,inactive: 37.5%
10,Cc1ccc(S(=O)(=O)N2CN(Cc3ccco3)c3nc4ccccc4nc32)cc1,inactive: 39%
11,NC(=O)c1oc2ccccc2c1NC(=O)c1ccco1,inconclusive: 100%
12,O=C(N/C(=C\c1ccc(-c2ccccc2)o1)C(=O)N1CCOCC1)c1ccccc1,inactive: -78.6%
13,CCOC(=O)N1CCN(C(=O)c2ccc3nc4ccsc4c(=O)n3c2)CC1,inconclusive: 100%
14,O=C(NCc1ccccc1)c1cc(-c2ccco2)on1,inconclusive: 86%
15,COc1ccc(/C=N/NC(=O)C(O)(c2ccccc2)c2ccccc2)cc1OC,inactive: -7.14%
16,Nn1c(Cc2cccc3ccccc23)nnc1SCc1ccc(Cl)c(Cl)c1,inconclusive: 60%
17,COc1ccc(CCNC(=O)NC23CC4CC(CC(C4)C2)C3)cc1OC,inactive: 26.3%
18,Cc1nn(C)cc1/C=N\NC(=O)c1ccc(Cn2cc(Cl)cn2)cc1,inconclusive: 64.3%
19,CN1CC(=O)N(CC(=O)Nc2cccc(S(=O)(=O)N3CCOCC3)c2)C1=O,inconclusive: 65%
20,Cn1c(=O)oc2cc(S(=O)(=O)N3CCN(c4ccc(F)cc4)CC3)ccc21,active: 70.3%
21,COC(=O)CSc1nc(-c2ccc(C)cc2)c2c(c1C#N)CCCC2,inconclusive: 67.9%
22,CCN(C(=O)c1ccc(C)c(Br)c1)c1ccccc1,inconclusive: 66.7%
23,CCOC(=O)c1ccccc1NC(=O)Cn1cnc2c(cnn2-c2ccc(OC)cc2)c1=O,inconclusive: 75%

row,SMILES,inhibition
1,COC(=O)c1cn(CCOc2ccccc2OC)c2ccccc12,inconclusive: 77.8%
2,CCN(CC)C(=O)c1ccc2c(c1)N(Cc1ccccc1)C(=O)CS2=O (configuration not stated),inconclusive: 70%
3,CCOC(=O)N1CCN(S(=O)(=O)c2ccc(C(=O)NNc3nc4c(C)cccc4s3)cc2)CC1,inactive: -66.7%
4,Cc1ccc(O)c(CNn2cnnc2)c1,inconclusive: 79.3%
5,CCC(C)N(C(=O)COC(=O)CNC(=O)c1ccccc1F)C1CCS(=O)(=O)C1 (configuration not stated),inconclusive: 71.4%
6,O=C(Oc1ccccc1)c1cccc(COC(=O)c2cnccn2)c1,inconclusive: 77.8%
7,COc1ccccc1N(CC(=O)NC1CCCC1)C(=O)c1csnn1,inconclusive: 75.9%
8,CCOC(=O)c1ccc(NS(=O)(=O)c2cc(-c3nnnn3CC)ccc2OC)cc1,inconclusive: 75%
9,O=C(Nc1nccs1)C1CCN(S(=O)(=O)c2ccc3c(c2)OCCCO3)CC1,inactive: 25%
10,O=[N+]([O-])C(C1CCS(=O)(=O)C1)C1CCS(=O)(=O)C1 (configuration not stated),inconclusive: 72.7%
11,CCCN(CCC)C(=O)CSc1nc2ccccc2c(=O)n1C1CCCC1,inactive: -257%
12,Cc1cc(C)nc(N2CCCC(C(=O)Nc3ccc4c(c3)OCO4)C2)n1 (configuration not stated),inconclusive: 79%
13,O=[N+]([O-])c1ccc(N2CCN(S(=O)(=O)Cc3ccccc3)CC2)cc1N1CCOCC1,inactive: 20%
14,CCOC(=O)C1CCN(c2ncnc3nc[nH]c23)CC1,inconclusive: 70%
15,CCOC(=O)c1c(NC(=O)CCl)sc(C(=O)N(CC)CC)c1C,inconclusive: 66.7%
16,Clc1nnc(NN=C2CCCC2)c2ccccc12,inconclusive: 62.5%
17,COc1ccc(C(C(=O)NCc2ccccc2)N(Cc2ccc3c(c2)OCO3)C(=O)c2cnccn2)cc1 (configuration not stated),inconclusive: 67.9%
18,CN1C(=O)/C(=C/c2ccccc2OCc2ccccc2F)NC1=S,inactive: -4.65%
19,CCc1nc(OCCN(C)C)c2oc3ccccc3c2n1,inconclusive: 71.4%
20,Fc1cccc(Cc2noc(CN3CCCN(C4Cc5ccccc5C4)CC3)n2)c1,inactive: -6.67%
21,COc1ccc(N(C(=O)CCl)C(C)(C(=O)Nc2c(C)cccc2C)c2ccccn2)cc1 (configuration not stated),inconclusive: 70%
22,CCN(CC)CCN(C(=O)c1ccc2c(c1)CCCC2)c1nc2ccc(F)cc2s1,inconclusive: 76.5%
23,CCN(CC)c1ccc(N=Cc2ccccc2[N+](=O)[O-])cc1,inactive: -175%

# Taken from the listing, 4 compounds:
row,SMILES,inhibition
4,c1ccc(-c2csc3ncnc(NCC4COc5ccccc5O4)c23)cc1 (configuration not stated),inconclusive: 66.7%
5,Nc1ccc(-n2nnnc2CN2CCOCC2)cc1,inactive: 37.9%
6,Cc1cc(Cl)c(OCCOCCN2CCC(C)CC2)c(Br)c1,inactive: -34.6%
7,O=C(Cc1cc(=O)[nH][nH]1)N/N=C/c1c(Cl)cccc1Cl,inconclusive: 66.7%

# (next part)

row,SMILES,inhibition
1,Cc1cccc(NC2=C(NCCO)C(=O)c3ccccc3C2=O)c1,inconclusive: 60%
2,CCOc1ccc(S(=O)(=O)Nc2ccncc2)c(C)c1C,inconclusive: 72.7%
3,CCCn1c(SCC(=O)N2CCc3ccccc32)nnc1-c1ccco1,inconclusive: 75%
4,Cc1cc(C)n(-c2cc(Cl)ccc2[N+](=O)[O-])n1,inconclusive: 73.9%
5,CCCN=C1CC(C)(C)CC(=O)/C1=C(/O)CCCN1C(=O)c2ccccc2C1=O,inconclusive: 75%
6,COc1cccc(N2C(C(C)=O)=NN(c3ccccc3)C2c2ccc(N3CCOCC3)cc2)c1 (configuration not stated),inconclusive: 76.9%
7,CNS(=O)(=O)c1ccc(Oc2ccc(S(=O)(=O)NC)cc2)cc1,inconclusive: 71.4%
8,Cc1cc(C)c2nc(NNC(=O)c3cc(-c4cccs4)nc4ccccc34)sc2c1,inconclusive: 60%
9,Cc1ccc(NC(=O)Nc2cccs2)cc1,inconclusive: 65.4%
10,C=CCc1cccc(CNc2c(C)n(C)n(-c3ccccc3)c2=O)c1O,active: 75.8%
11,CSc1nc(-c2ccc(Cl)cc2)nn1S(=O)(=O)c1ccc(Cl)cc1,inconclusive: 76.7%
12,Cc1ccnc2nc(C(=O)OCC(=O)NCCc3ccccc3)nn12,active: 73.3%
13,CNC(=O)c1ccsc1NC(=O)CCS(=O)(=O)c1ccccc1,inconclusive: 72.7%
14,NC(=O)c1c(C(F)(F)F)cc(-c2ccccc2)nc1NCCO,inconclusive: 75%
15,C=C(C)CSCc1nc2ccccc2[nH]1,inconclusive: 83.3%
16,COc1cc(/C=C(\C#N)C(=O)NCC2CCCO2)ccc1OC(C)C (configuration not stated),active: 70.3%
17,Nc1c(C(=O)C2CC2)sc2nc(-c3ccccc3)cc(C(F)(F)F)c12,inconclusive: 86.7%
18,COc1ccccc1/C=N/NC(=O)c1ccc(NC(=O)c2ccccc2Br)cc1,inconclusive: 64.3%
19,Cc1nc2c([nH]c3ccc(Br)cc32)s1,active: 95%
20,COC(=O)COc1ccc(S(=O)(=O)Nc2ccccc2SC)cc1,inconclusive: 77.1%
21,Cc1cc(NC(=O)c2ccccc2)sc1C,inactive: -16.1%
22,COc1ccc(-c2nc(=S)c3c([nH]2)Oc2ccc(C)cc2C3)cc1O,inactive: -3.7%
23,CCOC(=O)/C=c1\s/c(=C\c2ccc(C)cc2)c(=O)n1CC(=O)NCc1ccco1,inconclusive: 70.3%
